Results deposited as PubChem BioAssay AID652243 (Drosophila RNAi Screening Center, 2013)

Aim: 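Fly regulators of androgen-dependent reporter output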 (primary screen)
System: Drosophila S2R+ cells
Knock-down reagent: long dsRNA against Drosophila genes
Time to read-out: 72 h (48 h, then 24 h hormone)
Conditions: synthetic androgen R1881 at 10 nM for 24 h
Measured: 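Firefly light from an androgen-responsive reporter and Renilla control light per well, raw and unnormalised, for each of two replicates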
Reading the numbers: firefly reporter light: higher = more light from androgen-responsive reporter; Renilla control light: higher = more constitutive control signal (cell number, transfection)
Hit rule: 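Hit when the log firefly-to-Renilla ratio dropped or increased by a fixed fold versus the mean of GFP or LacZ controls across duplicate plates; lowering cut given as 1.5 and as 3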
Calls: active = hit: reporter lowered or raised; inactive = no hit
The deposit covers about 24,000 reagents; below is an unselected part of those that have a named target and a result. In the full data, 246 (1%) got an active call. 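Plates not normalised; calls are printed but the firefly/Renilla ratio behind them is not deposited; fold cut for lowering reported inconsistently.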 Raw values vary from plate to plate and are shown uncorrected. Names joined by + are all predicted targets of the reagent. Not given: the amount of reagent.

gene | DRSC id | firefly reporter light, replicate 1 | firefly reporter light, replicate 2 | Renilla control light, replicate 1 | Renilla control light, replicate 2 | outcome
CG15269 | DRSC01942 | 1.12e5 | 1.03e5 | 1.17e6 | 1.46e6 | inactive
CG15269 | DRSC24737 | 9.64e5 | 7.85e5 | 9.49e5 | 8.77e5 | inactive
CG40992 (retired record) | DRSC38637 | 9.14e5 | 6.31e5 | 2.46e6 | 2.05e6 | inactive
cona (corona) | DRSC16281 | 1.90e5 | 1.61e5 | 2.19e6 | 1.65e6 | inactive
CG17260 | DRSC00497 | 7.76e5 | 9.07e5 | 1.76e6 | 1.57e6 | inactive
CG17260 | DRSC29415 | 7.56e5 | 8.74e5 | 6.83e5 | 6.83e5 | inactive
CG31370 | DRSC21453 | 6.35e5 | 8.45e5 | 1.80e6 | 1.64e6 | inactive
rhi (rhino) | DRSC05996 | 60075 | 64836 | 1.24e6 | 1.24e6 | inactive
Fdx2 (Ferredoxin 2) | DRSC08306 | 1.18e5 | 1.49e5 | 2.23e6 | 2.60e6 | inactive
Gr98c (Gustatory receptor 98c) | DRSC22212 | 8.26e5 | 7.79e5 | 2.71e6 | 2.45e6 | inactive
Gr98c (Gustatory receptor 98c) | DRSC26546 | 3.91e5 | 3.10e5 | 6.41e5 | 6.66e5 | inactive
CG9483 | DRSC03226 | 1.41e6 | 7.19e5 | 2.11e6 | 1.05e6 | inactive
CG9483 | DRSC29929 | 4.53e5 | 3.93e5 | 8.70e5 | 1.24e6 | inactive
CG18135 | DRSC10295 | 62822 | 68979 | 6.10e5 | 4.44e5 | inactive
CG8064 | DRSC16373 | 63439 | 73989 | 6.21e5 | 5.69e5 | inactive
Nuak (Nuak family kinase) | DRSC14414 | 1.07e5 | 92688 | 1.96e6 | 1.38e6 | inactive
Nuak (Nuak family kinase) | DRSC14415 | 11612 | 14698 | 5.65e5 | 3.57e5 | inactive
Nuak (Nuak family kinase) | DRSC14416 | 1.68e5 | 1.58e5 | 2.86e6 | 1.98e6 | inactive
Nuak (Nuak family kinase) | DRSC36920 | – | – | – | – | inactive
Pp1-13C (Protein phosphatase 1 at 13C) | DRSC20269 | 7.55e5 | 8.34e5 | 2.57e6 | 2.91e6 | inactive
Pp1-13C (Protein phosphatase 1 at 13C) | DRSC23305 | 5.48e5 | 6.47e5 | 1.10e6 | 1.12e6 | inactive
Pp1-13C (Protein phosphatase 1 at 13C) | DRSC27492 | 2.76e5 | 1.79e5 | 6.24e5 | 7.99e5 | inactive
Jon74E (Jonah 74E) | DRSC10617 | 2.10e5 | 1.60e5 | 1.23e6 | 9.99e5 | inactive
Jon74E (Jonah 74E) | DRSC23947 | 4.91e5 | 3.81e5 | 5.41e5 | 3.96e5 | inactive
Vha16-3 (Vacuolar H[+] ATPase 16kD subunit 3) | DRSC10872 | 3.37e5 | 2.43e5 | 3.49e6 | 2.77e6 | inactive
Vha16-3 (Vacuolar H[+] ATPase 16kD subunit 3) | DRSC25513 | 3.36e5 | 2.77e5 | 1.10e6 | 5.92e5 | inactive
akirin | DRSC11000 | 5.56e5 | 3.19e5 | 1.02e6 | 7.40e5 | inactive
akirin | DRSC26196 | 1.65e5 | 1.81e5 | 1.74e5 | 1.85e5 | inactive
dlt (discs lost) | DRSC08705 | 90337 | 88304 | 8.88e5 | 8.53e5 | inactive
dlt (discs lost) | DRSC26168 | 2.91e5 | 1.95e5 | 5.70e5 | 6.47e5 | inactive
CG14626 | DRSC18631 | 1.67e5 | 1.37e5 | 2.39e6 | 1.69e6 | inactive
CG14626 | DRSC27786 | 1.92e5 | 2.10e5 | 2.38e5 | 5.74e5 | inactive
Ttd14 (TRPL translocation defect 14) | DRSC06632 | 4.72e5 | 5.15e5 | 8.51e5 | 6.70e5 | inactive
Ttd14 (TRPL translocation defect 14) | DRSC06942 | 1.64e5 | 2.05e5 | 1.57e6 | 2.15e6 | inactive
CG14676 | DRSC12262 | 39482 | 47886 | 1.17e6 | 1.18e6 | inactive
lncRNA:CR34046 (long non-coding RNA:CR34046) | DRSC14075 | 2.39e5 | 5.06e5 | 1.77e5 | 3.44e5 | inactive
lncRNA:CR34046 (long non-coding RNA:CR34046) | DRSC30016 | 5.68e5 | 4.09e5 | 1.36e6 | 1.43e6 | inactive
PNKP (Polynucleotide kinase 3'-phosphatase) | DRSC16512 | 1.10e5 | 1.31e5 | 1.85e6 | 2.58e6 | inactive
Npc2d (Niemann-Pick type C-2d) | DRSC14551 | 1.42e5 | 2.22e5 | 2.08e6 | 2.13e6 | inactive
Npc2d (Niemann-Pick type C-2d) | DRSC28011 | 1.04e6 | 7.25e5 | 1.75e6 | 1.54e6 | inactive
CG1172 + Or83a | DRSC12357 | 48609 | 1.05e5 | 1.77e6 | 1.15e6 | inactive
RPA2 (Replication protein A2) | DRSC03184 | 1.43e6 | 1.30e6 | 3.11e6 | 2.46e6 | inactive
RPA2 (Replication protein A2) | DRSC29750 | 5.29e5 | 3.71e5 | 1.52e6 | 1.47e6 | inactive
rhea | DRSC11300 | 1.80e5 | 1.72e5 | 2.98e6 | 2.38e6 | inactive
Mal-A1 (Maltase A1) | DRSC07461 | 3.49e5 | 3.31e5 | 1.91e6 | 1.74e6 | inactive
Mal-A1 (Maltase A1) | DRSC29096 | 5.32e5 | 3.71e5 | 1.47e6 | 1.51e6 | inactive
Ptp69D (Protein tyrosine phosphatase 69D) | DRSC11258 | 2.54e5 | 1.79e5 | 3.07e6 | 2.20e6 | inactive
Ptp69D (Protein tyrosine phosphatase 69D) | DRSC36691 | – | – | – | – | inactive
Ptp69D (Protein tyrosine phosphatase 69D) | DRSC36692 | – | – | – | – | inactive
CG7857 | DRSC10925 | 4.00e5 | 1.65e5 | 2.30e6 | 1.89e6 | inactive
CG7857 | DRSC29862 | 9.79e5 | 9.78e5 | 1.08e6 | 1.55e6 | inactive
Rtf1 | DRSC04085 | 9.09e5 | 8.22e5 | 1.49e6 | 1.37e6 | inactive
Rtf1 | DRSC29441 | 3.44e5 | 2.47e5 | 6.47e5 | 6.47e5 | inactive
cnc (cap-n-collar) | DRSC14676 | 1.39e5 | 1.38e5 | 1.90e6 | 1.68e6 | inactive
cnc (cap-n-collar) | DRSC15289 | 61266 | 62415 | 6.26e5 | 6.48e5 | inactive
cnc (cap-n-collar) | DRSC15600 | 1.80e5 | 2.61e5 | 2.62e6 | 2.78e6 | inactive
cnc (cap-n-collar) | DRSC15601 | 2.48e5 | 2.34e5 | 1.99e6 | 1.94e6 | inactive
Lsp1gamma (Larval serum protein 1 gamma) | DRSC08672 | 9.34e5 | 1.22e6 | 1.16e6 | 1.09e6 | inactive
Lsp1gamma (Larval serum protein 1 gamma) | DRSC25710 | 4.34e5 | 3.70e5 | 4.39e5 | 2.62e5 | inactive

Looked up above:
Under “firefly reporter light, replicate 1”, Lsp1gamma (Larval serum protein 1 gamma) [DRSC08672] has 9.34e5
Entry of rhi (rhino) [DRSC05996] under “Renilla control light, replicate 2”: 1.24e6
Under “Renilla control light, replicate 2”, Rtf1 [DRSC29441] reads 6.47e5
